This passage reports binding results from publication doi:10.1101/2021.04.22.440930.

Sequences of proteins named here, by UniProt entry; tags and fusion partners are left off. A change or cut given only in a name is not applied to a line headed by its entry.
UniProt Q13283: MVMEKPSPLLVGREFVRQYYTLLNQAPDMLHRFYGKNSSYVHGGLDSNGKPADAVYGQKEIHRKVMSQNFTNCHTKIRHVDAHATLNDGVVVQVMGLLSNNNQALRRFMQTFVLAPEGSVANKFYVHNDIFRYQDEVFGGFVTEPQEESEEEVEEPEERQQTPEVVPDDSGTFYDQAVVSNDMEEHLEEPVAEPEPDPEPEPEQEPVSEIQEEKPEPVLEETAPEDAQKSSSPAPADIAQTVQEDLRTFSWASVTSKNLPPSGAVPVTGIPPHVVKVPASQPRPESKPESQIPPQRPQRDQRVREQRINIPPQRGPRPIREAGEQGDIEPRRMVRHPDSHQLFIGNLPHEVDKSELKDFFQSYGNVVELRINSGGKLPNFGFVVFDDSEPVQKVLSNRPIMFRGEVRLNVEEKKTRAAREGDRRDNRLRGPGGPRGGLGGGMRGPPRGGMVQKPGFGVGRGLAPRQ

This assay deals with GFP-G3BP1 10KR (UniProt Q13283). The assay is described as follows: co-IP.

Results are given in words; binding and its absence hold for the method and conditions named. Binding seen in cells or lysates may run through a third protein. A result given as binding can be weak or reduced; the word gives no strength.

“valosin-containing protein (VCP), endogenous (from UniProt P55072 1-806) (enzyme)”: the binding entry is on record as “binds weakly”.
